Laboratory results as given in the supplement of paper PMC4604168 (melanoma cell lines).
This is one part of the list. Repeats are few or missing, and single values can be far off.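 Cells were imaged in 1,536-well plates, and nuclei stained with an antibody against cleaved PARP were counted against all DNA-stained nuclei to give the apoptosis fraction. Screening doses were chosen to leave most cells alive, and resting and induced cleaved-PARP levels differ strongly between cell lines.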

Tests used:
Test in all cases: cleaved PARP positive nuclei fraction relative to DMSO control; melanoma cells; higher = more apoptosis
Details in all cases: library dose: low library concentration; 72 h
CBRC034 = tested on: CBRC034 (line from a melanoma biopsy)
COLO792 = tested on: COLO792
COLO800 = tested on: COLO800
COLO829 = tested on: COLO829
G361 = tested on: G361
IPC-298 = tested on: IPC-298
IST-MEL1 = tested on: IST-MEL1
LB2518-MEL = tested on: LB2518-MEL
LOXIMVI = tested on: LOXIMVI
MEL-HO = tested on: MEL-HO

Compound | cleaved PARP positive nuclei fraction (CBRC034) | cleaved PARP positive nuclei fraction (COLO792) | cleaved PARP positive nuclei fraction (COLO800) | cleaved PARP positive nuclei fraction (COLO829) | cleaved PARP positive nuclei fraction (G361) | cleaved PARP positive nuclei fraction (IPC-298) | cleaved PARP positive nuclei fraction (IST-MEL1) | cleaved PARP positive nuclei fraction (LB2518-MEL) | cleaved PARP positive nuclei fraction (LOXIMVI) | cleaved PARP positive nuclei fraction (MEL-HO)
NCC(=O)Nc1ccc(-n2nc(C(F)(F)F)cc2-c2ccc3c(ccc4ccccc43)c2)cc1 + Cc1cc(SCc2sc(-c3ccc(C(F)(F)F)c(F)c3)nc2C)ccc1OCC(=O)O [GW0742] (first compound 1 µM, partner dose 2 µM) | 95.9% | 46% | 65.4% | 107% | 84.4% | 54.1% | 58.7% | 85.2% | 84.6% | 
C[C@]1(c2nc3c(C(N)=O)cccc3[nH]2)CCCN1 [Veliparib] + C/C(O)=C(\C#N)C(=O)Nc1cc(Br)ccc1Br [LFM-A13] (first compound 1.4 µM, partner dose 2 µM) | 85.2% | 66.1% | 137% | 61% | 81.4% | 39.5% | 110% | 93.8% | 16.7% | 
COc1ccc(COc2ccc(Cc3cnc(N)nc3N)cc2OC)cc1 + Cc1cc(SCc2sc(-c3ccc(C(F)(F)F)c(F)c3)nc2C)ccc1OCC(=O)O [GW0742] (first compound 1 µM, partner dose 2 µM) | 48% | 168% | 117% | 109% | 41.2% | 69.4% | 42.4% | 157% | 120% | 
COc1ccc2c(c1)CCC1C2CCC2(C)C(NCCCCCCN3C(=O)C=CC3=O)CCC12 (stereo unspecified) + Cc1cc(SCc2sc(-c3ccc(C(F)(F)F)c(F)c3)nc2C)ccc1OCC(=O)O [GW0742] (first compound 0.4 µM, partner dose 2 µM) | 30.6% | 118% | 184% | 58.1% | 118% | 499% | 229% | 146% | 45.2% | 
C[As](C)SC[C@H](NC(=O)CC[C@H](N)C(=O)O)C(=O)NCC(=O)O [Darinaparsin] + COc1ccc2c(c1)CCC1C2CCC2(C)C(NCCCCCCN3C(=O)C=CC3=O)CCC12 [U73122] (first compound 0.4 µM, partner dose 0.4 µM) | 90.9% | 79.3% | 63.5% | 200% | 73% | 54.4% | 53.3% | 81.5% | 55% | 
N#Cc1c(O)c2c(-c3ccc(-c4ccccc4O)cc3)csc2[nH]c1=O + Cc1cc(SCc2sc(-c3ccc(C(F)(F)F)c(F)c3)nc2C)ccc1OCC(=O)O [GW0742] (first compound 2 µM, partner dose 2 µM) | 79% | 94.2% | 228% | 44.1% | 61.4% | 36.5% | 92.3% | 149% | 31.3% | 
CCc1ccc(CCOc2ccc(CC3SC(=O)NC3=O)cc2)nc1 (stereo unspecified) [pioglitazone] + O=C(Oc1ccc([N+](=O)[O-])cc1)N1CCC(C(O)(c2ccc3c(c2)OCO3)c2ccc3c(c2)OCO3)CC1 [JZL184] (first compound 2 µM, partner dose 1 µM) | 67% | 57.4% | 115% | 204% | 62.3% | 164% | 145% | 214% | 15.1% | 
CN(C)S(=O)(=O)c1ccc2c(c1)/C(=C/c1cc3c([nH]1)CCCC3)C(=O)N2 + C/C(O)=C(\C#N)C(=O)Nc1cc(Br)ccc1Br [LFM-A13] (first compound 0.4 µM, partner dose 2 µM) | 113% | 73.9% | 131% | 195% | 65% | 43.2% | 234% | 170% | 55.4% | 
OCCn1cc(-c2cnc3nnn(Cc4ccc5ncccc5c4)c3n2)cn1 + O=C(Oc1ccc([N+](=O)[O-])cc1)N1CCC(C(O)(c2ccc3c(c2)OCO3)c2ccc3c(c2)OCO3)CC1 [JZL184] (first compound 1 µM, partner dose 1 µM) | 44.6% | 141% | 145% | 89.3% | 38.2% | 42.2% | 118% | 154% | 7.95% | 
N.N.[Cl][Pt][Cl] [cisplatin] + CNC(=O)c1cc(Oc2ccc(NC(=O)Nc3ccc(Cl)c(C(F)(F)F)c3)cc2)ccn1 [sorafenib] (first compound 1.6 µM, partner dose 0.4 µM) | 49.9% | 79.7% | 105% | 90.5% | 32.8% | 93.3% | 69.4% | 24.4% | 132% | 96.7%
